Earlier results, collected in patent US10259809B2, “Fluorinated imidazo[4,5-C]quinoline derivatives as inhibitors of bromodomain containing proteins” (Trillium Therapeutics Inc., priority 2015, dated 2019).
At least one structure is not confirmed: it was looked up by name or label, or the drawing left a doubt.

Test system: ABC DLBCL cells
Conditions: with BET inhibitors, in vitro and in a xenograft mouse model; cited from earlier work

C=CC(=O)N1CCC[C@@H](n2nc(-c3ccc(Oc4ccccc4)cc3)c3c(N)ncnc32)C1 [ibrutinib]
synergy in killing ABC DLBCL cells: synergized strongly with BET inhibitors
